Four molecules from paper PMC2346476 can be followed below.

Chains of the proteins cited; added tags and fusions are not shown. Residues count along the entry.
UniProt O94763, residues 26-535: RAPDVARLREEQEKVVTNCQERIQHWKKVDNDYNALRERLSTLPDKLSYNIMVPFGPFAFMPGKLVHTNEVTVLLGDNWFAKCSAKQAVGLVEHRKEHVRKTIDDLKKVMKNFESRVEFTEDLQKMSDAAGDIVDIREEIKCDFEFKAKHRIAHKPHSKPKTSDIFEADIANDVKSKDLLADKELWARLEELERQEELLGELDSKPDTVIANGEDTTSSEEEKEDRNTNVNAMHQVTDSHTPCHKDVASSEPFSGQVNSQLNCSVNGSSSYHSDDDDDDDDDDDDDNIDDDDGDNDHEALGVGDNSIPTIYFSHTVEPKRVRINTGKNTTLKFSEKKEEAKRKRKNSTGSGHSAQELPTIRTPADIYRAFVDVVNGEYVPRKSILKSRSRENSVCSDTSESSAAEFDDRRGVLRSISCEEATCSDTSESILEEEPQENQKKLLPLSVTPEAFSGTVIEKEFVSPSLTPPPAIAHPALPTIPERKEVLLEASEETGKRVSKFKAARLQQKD
UniProt P12982: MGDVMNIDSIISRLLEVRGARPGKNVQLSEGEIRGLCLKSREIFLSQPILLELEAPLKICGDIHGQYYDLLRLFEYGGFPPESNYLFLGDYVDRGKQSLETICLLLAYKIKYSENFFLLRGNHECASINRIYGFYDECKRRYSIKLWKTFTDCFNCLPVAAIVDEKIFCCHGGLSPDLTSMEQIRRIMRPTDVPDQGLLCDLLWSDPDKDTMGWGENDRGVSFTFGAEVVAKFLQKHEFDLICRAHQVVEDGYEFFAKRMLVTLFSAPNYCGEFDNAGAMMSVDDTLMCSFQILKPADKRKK
UniProt P62136: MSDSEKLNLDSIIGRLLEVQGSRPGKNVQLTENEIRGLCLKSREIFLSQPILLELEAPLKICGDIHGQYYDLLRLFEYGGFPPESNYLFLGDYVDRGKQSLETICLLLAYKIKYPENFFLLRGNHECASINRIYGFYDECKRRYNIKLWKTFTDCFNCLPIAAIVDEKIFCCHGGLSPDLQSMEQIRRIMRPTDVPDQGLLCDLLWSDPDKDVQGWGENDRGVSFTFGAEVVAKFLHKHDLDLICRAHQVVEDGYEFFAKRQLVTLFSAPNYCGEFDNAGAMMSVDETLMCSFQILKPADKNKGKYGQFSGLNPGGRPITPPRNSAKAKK
UniProt P62140: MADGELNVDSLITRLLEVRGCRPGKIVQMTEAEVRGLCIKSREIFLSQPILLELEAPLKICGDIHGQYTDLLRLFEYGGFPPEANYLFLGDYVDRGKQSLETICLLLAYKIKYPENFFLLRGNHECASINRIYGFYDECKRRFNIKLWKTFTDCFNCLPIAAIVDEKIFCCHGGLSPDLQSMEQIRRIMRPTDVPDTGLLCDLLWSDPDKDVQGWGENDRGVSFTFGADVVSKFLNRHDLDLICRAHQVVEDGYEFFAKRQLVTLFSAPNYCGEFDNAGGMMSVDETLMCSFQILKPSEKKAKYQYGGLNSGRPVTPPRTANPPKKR

Results are given in words; binding and its absence hold for the method and conditions named. In cells and extracts the contact can be indirect. Some results given as binding are weak or reduced against the parent protein; the word gives no strength.

The target of test [1] is T1, endogenous Drosophila Uri (Drosophila (endogenous in flies)) (UniProt Q9W148).
T1 sequence: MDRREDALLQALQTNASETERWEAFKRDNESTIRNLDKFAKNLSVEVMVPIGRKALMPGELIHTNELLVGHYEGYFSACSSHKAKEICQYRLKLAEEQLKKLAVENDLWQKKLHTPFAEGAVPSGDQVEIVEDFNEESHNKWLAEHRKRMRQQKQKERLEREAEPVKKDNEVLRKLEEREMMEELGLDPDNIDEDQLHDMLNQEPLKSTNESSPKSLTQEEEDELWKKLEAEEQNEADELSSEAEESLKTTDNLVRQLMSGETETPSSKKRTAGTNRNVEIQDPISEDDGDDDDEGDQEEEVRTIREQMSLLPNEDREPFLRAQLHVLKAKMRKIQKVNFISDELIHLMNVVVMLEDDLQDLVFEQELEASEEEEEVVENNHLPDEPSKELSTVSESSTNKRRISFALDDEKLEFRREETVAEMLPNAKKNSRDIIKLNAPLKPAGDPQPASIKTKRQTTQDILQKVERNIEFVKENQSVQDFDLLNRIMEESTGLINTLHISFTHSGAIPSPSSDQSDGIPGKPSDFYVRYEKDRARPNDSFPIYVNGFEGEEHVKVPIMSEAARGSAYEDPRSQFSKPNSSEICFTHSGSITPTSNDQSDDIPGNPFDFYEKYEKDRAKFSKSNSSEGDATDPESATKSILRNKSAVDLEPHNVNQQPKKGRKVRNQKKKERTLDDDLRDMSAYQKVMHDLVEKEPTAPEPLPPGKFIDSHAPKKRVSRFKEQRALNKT
Nature of the test: co-IP; fly lysates (arm-GAL4; UAS-HA-PP1c), immunoprecipitation with anti-Uri antibodies and Protein G Sepharose, immunoblot with anti-HA; IP buffer 25 mM HEPES pH 7.5, 100 mM NaCl, 1 mM EGTA, 0.1% Triton X-100, 10% glycerol. A general note: Immunoblotting shows a protein as a band on a membrane.

Test [2] addresses FLAG-tagged human URI/RMP (pNKFlag-RMP) (human) (UniProt O94763). The experiment in a line: co-IP; lysates of co-transfected COS7 cells, immunoprecipitation with anti-FLAG antibodies, immunoblot with anti-V5; 50 mM Tris-HCl, 0.5% Triton-X100, 150 mM NaCl.
Test [3] concerns the target HA-tagged Drosophila PP1α87B expressed in flies (arm-GAL4; UAS-HA-PP1α87B) (Drosophila) (UniProt P12982). Nature of the test: co-IP; reciprocal experiment: immunoprecipitation with anti-HA antibodies, immunoblot with anti-Uri antibodies; data not shown.

Turning to “HA-tagged Drosophila PP1α87B expressed in flies (arm-GAL4; UAS-HA-PP1α87B) (from UniProt P12982 1-302) (enzyme)”, in test [1], the binding result was “binds”.

“V5-tagged human PP1α (clone H-X70848M in pcDNA3.1/GS) (from UniProt P62136 1-330) (enzyme)”: in test [2], the binding entry is reported as “binds”.

Take “V5-tagged human PP1β (clone H-X80910M in pcDNA3.1/GS) (from UniProt P62140 1-327) (enzyme)”: the binding entry in test [2] is given as “no binding”.

B1: endogenous Drosophila Uri (protein, UniProt Q9W148 1-731)
chain: T1 sequence
For the molecule B1, in test [3], the binding entry is recorded as “binds”.
